Reference: EP4076430B1, “A METHOD OF TREATING NONALCOHOLIC STEATOHEPATITIS” (Vector Vitale IP LLC, priority 2019, dated 2021)

Test: Levels of divalent metal ions in muscles, kidneys and liver, obesity model
Type: in vivo, rats
Details: DIO+zinc: high-fat diet, intragastrically every third day

With `N[C@@H](CC(=O)[O-])C(=O)[O-].[Zn+2]` [^64Zne, zinc aspartate] the Copper level (Kidneys) was 4.94±0.82 µg/g tissue, the Manganese level (Kidneys) was 0.64±0.03 µg/g tissue and the Copper level (Liver) was 3.93±0.09 µg/g tissue. The Manganese level (Liver) was 1.94±0.12 µg/g tissue and the Copper level (Muscles) was 0.72±0.15 µg/g tissue.
